PubChem BioAssay AID1259425, University of Nebraska Medical Center, 2018
The whole screen tested about 14,000 reagents; this is a random part of them. Not all columns of the deposit are shown. Not given: the time to read-out.

- Purpose: 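Compare each knockdown with KSR1 silencing using changes in marker transcripts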 (primary screen)
- Cells: HCT116 human colon cancer cells
- Reagents: siRNA pool against human genes, 50 nM siRNA
- Read-out: 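mRNA of six signature genes measured together by branched-DNA assay after 50 nM siRNA pool, blank removed, divided by geometric mean of two housekeeping genes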
- Scale: BNIP3L mRNA: higher = more BNIP3L transcript after knockdown

For VSIG4 (V-set and immunoglobulin domain containing 4), how do the results read?
BNIP3L mRNA, set 1: 0.23

How did the screen score GFAP (glial fibrillary acidic protein)?
BNIP3L mRNA, set 1: 0.14

What did the screen give for PLCH1 (phospholipase C eta 1)?
BNIP3L mRNA, set 1: 0.123

What did the screen give for TAF10 (TATA-box binding protein associated factor 10)?
BNIP3L mRNA, set 1: 0.124

For PRKN (parkin RBR E3 ubiquitin protein ligase), how do the results read?
BNIP3L mRNA, set 1: 0.119

How did the screen score R3HDM2 (R3H domain containing 2)?
BNIP3L mRNA, set 1: 0.0286

What is on record for TEX14 (testis expressed 14, intercellular bridge forming factor)?
BNIP3L mRNA, set 1: 0.0862

For PTGIS (prostaglandin I2 synthase), how do the results read?
BNIP3L mRNA, set 1: 0.106

What is on record for SPTB (spectrin beta, erythrocytic)?
BNIP3L mRNA, set 1: 0.0698

With RAB35 (RAB35, member RAS oncogene family), how do the results read?
BNIP3L mRNA, set 1: 0.123

With TEKT2 (tektin 2), what was measured?
BNIP3L mRNA, set 1: 0.13

Which result is listed for FBXL9P (F-box and leucine rich repeat protein 9, pseudogene)?
BNIP3L mRNA, set 1: 0.112

How did the screen score CPXCR1 (CPX chromosome region candidate 1)?
BNIP3L mRNA, set 1: 0.185

What did the screen give for XRCC4 (X-ray repair cross complementing 4)?
BNIP3L mRNA, set 1: 0.0317

Which result is listed for MAN2B1 (mannosidase alpha class 2B member 1)?
BNIP3L mRNA, set 1: 0.11

For MCCC1 (methylcrotonyl-CoA carboxylase subunit 1), what does the deposit list?
BNIP3L mRNA, set 1: 0.0582

How did the screen score PCDH15 (protocadherin related 15)?
BNIP3L mRNA, set 1: 0.164

With CYP26B1 (cytochrome P450 family 26 subfamily B member 1), what does the deposit list?
BNIP3L mRNA, set 1: 0.0724

What is on record for CDK16 (cyclin dependent kinase 16)?
BNIP3L mRNA, set 1: 0.0793
